Measurements as given in patent US20180320217A1, “METHODS FOR SAMPLING AND MEASURING ORAL LAVAGE PROTEINS” (The Procter & Gamble Company, priority 2017, published 2018).

B1: FETUA_HUMAN (protein, UniProt P02765 19-300; P02765 341-367, looked up)
Alpha-2-HS-glycoprotein chain … 1: APHGPGLIYRQPNCDDPETEEAALVAIDYINQNLPWGYKHTLNQIDEVKVWPQQPSGELFEIEIDTLETTCHVLDPTPVARCSVRQLKEHAVEGDCDFQLLKLDGKFSVVYAKCDSSPDSAEDVRKVCQDCPLLAPLNDTRVVHAAKAALAAFNAQNNGSNFQLEEISRAQLVPLPPSTYVEFTVSGTDCVAKEATEAAKCNLLAEKQYGFCKATLSEKLGGAEVAVTCMVFQTQPVSSQPQPEGANEAVPTPVVDPDAPPSPPLGAPGLPPAGSPPDSHVL
Alpha-2-HS-glycoprotein chain … 2: TVVQPSVGAAAGPVVPPCPGRIRHFKV
B2: A2ML1_HUMAN (protein, UniProt A8K2U0 18-1454, looked up)
Alpha-2-macroglobulin-like …: EELPNYLVTLPARLNFPSVQKVCLDLSPGYSDVKFTVTLETKDKTQKLLEYSGLKKRHLHCISFLVPPPAGGTEEVATIRVSGVGNNISFEEKKKVLIQRQGNGTFVQTDKPLYTPGQQVYFRIVTMDSNFVPVNDKYSMVELQDPNSNRIAQWLEVVPEQGIVDLSFQLAPEAMLGTYTVAVAEGKTFGTFSVEEYVLPKFKVEVVEPKELSTVQESFLVKICCRYTYGKPMLGAVQVSVCQKANTYWYREVEREQLPDKCRNLSGQTDKTGCFSAPVDMATFDLIGYAYSHQINIVATVVEEGTGVEANATQNIYISPQMGSMTFEDTSNFYHPNFPFSGKIRVRGHDDSFLKNHLVFLVIYGTNGTFNQTLVTDNNGLAPFTLETSGWNGTDVSLEGKFQMEDLVYNPEQVPRYYQNAYLHLRPFYSTTRSFLGIHRLNGPLKCGQPQEVLVDYYIDPADASPDQEISFSYYLIGKGSLVMEGQKHLNSKKKGLKASFSLSLTFTSRLAPDPSLVIYAIFPSGGVVADKIQFSVEMCFDNQVSLGFSPSQQLPGAEVELQLQAAPGSLCALRAVDESVLLLRPDRELSNRSVYGMFPFWYGHYPYQVAEYDQCPVSGPWDFPQPLIDPMPQGHSSQRSIIWRPSFSEGTDLFSFFRDVGLKILSNAKIKKPVDCSHRSPEYSTAMGAGGGHPEAFESSTPLHQAEDSQVRQYFPETWLWDLFPIGNSGKEAVHVTVPDAITEWKAMSFCTSQSRGFGLSPTVGLTAFKPFFVDLTLPYSVVRGESFRLTATIFNYLKDCIRVQTDLAKSHEYQLESWADSQTSSCLCADDAKTHHWNITAVKLGHINFTISTKILDSNEPCGGQKGFVPQKGRSDTLIKPVLVKPEGVLVEKTHSSLLCPKGKVASESVSLELPVDIVPDSTKAYVTVLGDIMGTALQNLDGLVQMPSGCGEQNMVLFAPIIYVLQYLEKAGLLTEEIRSRAVGFLEIGYQKELMYKHSNGSYSAFGERDGNGNTWLTAFVTKCFGQAQKFIFIDPKNIQDALKWMAGNQLPSGCYANVGNLLHTAMKGGVDDEVSLTAYVTAALLEMGKDVDDPMVSQGLRCLKNSATSTTNLYTQALLAYIFSLAGEMDIRNILLKQLDQQAIISGESIYWSQKPTPSSNASPWSEPAAVDVELTAYALLAQLTKPSLTQKEIAKATSIVAWLAKQHNAYGGFSSTQDTVVALQALAKYATTAYMPSEEINLVVKSTENFQRTFNIQSVNRLVFQQDTLPNVPGMYTLEASGQGCVYVQTVLRYNILPPTNMKTFSLSVEIGKARCEQPTSPRSLTLTIHTSYVGSRSSSNMAIVEVKMLSGFSPMEGTNQLLLQQPLVKKVEFGTDTLNIYLDELIKNTQTYTFTISQSVLVTNLKPATIKVYDYYLPDEQATIQYSDPCE
B3: ACTN1_HUMAN (protein, UniProt P12814 1-892, looked up)
Alpha-actinin-1: MDHYDSQQTNDYMQPEEDWDRDLLLDPAWEKQQRKTFTAWCNSHLRKAGTQIENIEEDFRDGLKLMLLLEVISGERLAKPERGKMRVHKISNVNKALDFIASKGVKLVSIGAEEIVDGNVKMTLGMIWTIILRFAIQDISVEETSAKEGLLLWCQRKTAPYKNVNIQNFHISWKDGLGFCALIHRHRPELIDYGKLRKDDPLTNLNTAFDVAEKYLDIPKMLDAEDIVGTARPDEKAIMTYVSSFYHAFSGAQKAETAANRICKVLAVNQENEQLMEDYEKLASDLLEWIRRTIPWLENRVPENTMHAMQQKLEDFRDYRRLHKPPKVQEKCQLEINFNTLQTKLRLSNRPAFMPSEGRMVSDINNAWGCLEQVEKGYEEWLLNEIRRLERLDHLAEKFRQKASIHEAWTDGKEAMLRQKDYETATLSEIKALLKKHEAFESDLAAHQDRVEQIAAIAQELNELDYYDSPSVNARCQKICDQWDNLGALTQKRREALERTEKLLETIDQLYLEYAKRAAPFNNWMEGAMEDLQDTFIVHTIEEIQGLTTAHEQFKATLPDADKERLAILGIHNEVSKIVQTYHVNMAGTNPYTTITPQEINGKWDHVRQLVPRRDQALTEEHARQQHNERLRKQFGAQANVIGPWIQTKMEEIGRISIEMHGTLEDQLSHLRQYEKSIVNYKPKIDQLEGDHQLIQEALIFDNKHTNYTMEHIRVGWEQLLTTIARTINEVENQILTRDAKGISQEQMNEFRASFNHFDRDHSGTLGPEEFKACLISLGYDIGNDPQGEAEFARIMSIVDPNRLGVVTFQAFIDFMSRETADTDTADQVMASFKILAGDKNYITMDELRRELPPDQAEYCIARMAPYTGPDSVPGALDYMSFSTALYGESDL
B4: ANXA1_HUMAN (protein, UniProt P04083 2-346, looked up)
Annexin A1: AMVSEFLKQAWFIENEEQEYVQTVKSSKGGPGSAVSPYPTFNPSSDVAALHKAIMVKGVDEATIIDILTKRNNAQRQQIKAAYLQETGKPLDETLKKALTGHLEEVVLALLKTPAQFDADELRAAMKGLGTDEDTLIEILASRTNKEIRDINRVYREELKRDLAKDITSDTSGDFRNALLSLAKGDRSEDFGVNEDLADSDARALYEAGERRKGTDVNVFNTILTTRSYPQLRRVFQKYTKYSKHDMNKVLDLELKGDIEKCLTAIVKCATSKPAFFAEKLHQAMKGVGTRHKALIRIMVSRSEIDMNDIKAFYQKMYGISLCQAILDETKGDYEKILVALCGGN
B5: AATC_HUMAN (protein, UniProt P17174 2-413, looked up)
Aspartate aminotransferase, …: APPSVFAEVPQAQPVLVFKLTADFREDPDPRKVNLGVGAYRTDDCHPWVLPVVKKVEQKIANDNSLNHEYLPILGLAEFRSCASRLALGDDSPALKEKRVGGVQSLGGTGALRIGADFLARWYNGTNNKNTPVYVSSPTWENHNAVFSAAGFKDIRSYRYWDAEKRGLDLQGFLNDLENAPEFSIVVLHACAHNPTGIDPTPEQWKQIASVMKHRFLFPFFDSAYQGFASGNLERDAWAIRYFVSEGFEFFCAQSFSKNFGLYNERVGNLTVVGKEPESILQVLSQMEKIVRITWSNPPAQGARIVASTLSNPELFEEWTGNVKTMADRILTMRSELRARLEALKTPGTWNHITDQIGMFSFTGLNPKQVEYLVNEKHIYLLPSGRINVSGLTTKNLDYVATSIHEAVTKIQ

Test system: peptides in gingival brush samples
Experiment: Protein and peptide profiling of gingival brush samples (LC-MS/MS), TABLE 23
Type: in vivo, human
Conditions: peptide abundance, gingival brush samples; for Mean Cntl Bsl / Mean Cntl Wk3: control regimen; for Mean Cntl Bsl / Mean TrtBsl: baseline; for Mean Cntl Wk3 / Mean TrtWk3: week 3; for Mean TrtBsl / Mean TrtWk3: treatment regimen

Molecule | Mean Cntl Bsl | Mean Cntl Wk3 | Mean TrtBsl | Mean TrtWk3
B1 | 4239.5 | 5183.4 | 3584.3 | 5904.1
B2 | 7579.1 | 13769.2 | 8971.9 | –
B3 | 1660.8 | 1371.4 | 2471.3 | 1263.6
B4 | 529165.7 | 960205.2 | 573737.1 | 1103967.7
B5 | 1835.9 | 3381.2 | 1731.2 | 3165.4
